No constants are given. Whether binding was seen depends on the method and setting. Binding seen in cells or lysates may run through a third protein. Some entries that bind do so weakly or less than the wild type. For some of these results: Where a sequence is shown, tags or fusion partners need not be part of it.
T1: hepatocyte nuclear factor 4α (HNF4), as GLucN-HNF4 and as HNF4-GLucC (UniProt P41235)
T1 sequence: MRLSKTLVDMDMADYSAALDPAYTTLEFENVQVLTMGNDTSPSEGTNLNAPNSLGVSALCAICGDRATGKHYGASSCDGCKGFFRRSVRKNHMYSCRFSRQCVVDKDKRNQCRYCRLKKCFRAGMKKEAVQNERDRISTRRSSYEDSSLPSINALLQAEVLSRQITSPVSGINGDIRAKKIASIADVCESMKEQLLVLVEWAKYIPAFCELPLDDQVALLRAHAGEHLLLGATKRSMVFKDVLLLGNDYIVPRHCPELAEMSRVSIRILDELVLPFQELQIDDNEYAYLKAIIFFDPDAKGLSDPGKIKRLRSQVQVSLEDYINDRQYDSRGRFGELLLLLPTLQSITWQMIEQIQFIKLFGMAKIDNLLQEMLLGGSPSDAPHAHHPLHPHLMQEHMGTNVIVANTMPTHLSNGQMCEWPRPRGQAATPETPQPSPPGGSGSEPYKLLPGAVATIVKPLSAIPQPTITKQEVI

The chains behind the UniProt entries cited, without tags or fusion partners. Where a name states a change or a piece, a line headed by the entry shows the natural chain unless it says otherwise. A line that says so, or that is headed by a name, gives the form on record, which may keep a tag or linker. Residues count along the entry.
CD63-GLucC (CD63 truncated at Val206 fused to the C-terminal fragment of Gaussia luciferase) (P08962, residues 1-206): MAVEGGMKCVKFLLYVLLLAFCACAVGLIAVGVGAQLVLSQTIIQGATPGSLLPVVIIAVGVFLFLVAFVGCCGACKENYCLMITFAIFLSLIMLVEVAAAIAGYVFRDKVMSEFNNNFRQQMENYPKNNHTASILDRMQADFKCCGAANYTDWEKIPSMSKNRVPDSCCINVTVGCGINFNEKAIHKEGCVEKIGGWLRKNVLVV
CD63-GLucC 7AA (Q36-T42 of the small extracellular loop substituted for alanine) (P08962, form named): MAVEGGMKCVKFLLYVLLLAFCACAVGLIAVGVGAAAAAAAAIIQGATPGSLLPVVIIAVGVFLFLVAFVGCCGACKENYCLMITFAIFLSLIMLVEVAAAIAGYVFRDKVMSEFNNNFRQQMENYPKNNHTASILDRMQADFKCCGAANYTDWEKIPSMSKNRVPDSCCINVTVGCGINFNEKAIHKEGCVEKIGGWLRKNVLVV
CD63-GLucC IIQ (I43-Q45 of the small extracellular loop substituted for alanine) (P08962, form named): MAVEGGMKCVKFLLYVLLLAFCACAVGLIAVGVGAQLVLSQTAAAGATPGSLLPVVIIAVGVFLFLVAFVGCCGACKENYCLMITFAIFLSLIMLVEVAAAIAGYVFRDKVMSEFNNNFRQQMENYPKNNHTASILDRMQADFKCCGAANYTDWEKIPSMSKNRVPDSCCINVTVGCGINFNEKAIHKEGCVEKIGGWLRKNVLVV
CD63-GLucC TPGS (T48-S51 of the small extracellular loop substituted for alanine) (P08962, form named): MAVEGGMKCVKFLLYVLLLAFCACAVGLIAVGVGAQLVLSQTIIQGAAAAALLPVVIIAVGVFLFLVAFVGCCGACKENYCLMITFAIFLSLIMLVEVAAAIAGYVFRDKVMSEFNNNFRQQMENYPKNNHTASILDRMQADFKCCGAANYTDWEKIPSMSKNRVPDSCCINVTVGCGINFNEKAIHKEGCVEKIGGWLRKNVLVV
UniProt P01033, residues 24-207: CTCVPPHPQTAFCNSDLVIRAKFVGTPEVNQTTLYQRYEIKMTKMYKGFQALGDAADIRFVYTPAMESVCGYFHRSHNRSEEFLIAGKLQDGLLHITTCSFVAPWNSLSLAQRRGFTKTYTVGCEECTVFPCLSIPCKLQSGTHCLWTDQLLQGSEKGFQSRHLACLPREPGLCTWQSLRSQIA


Legend:
[1] = biological target: CD63-GLucC (CD63 truncated at Val206 fused to the C-terminal fragment of Gaussia luciferase) (UniProt P08962); experiment: split reporter; Gaussia luciferase protein complementation assay (PCA) in live HEK293FT cells, no freeze-thaw; coelenterazine added to the live cell culture; also with or without anti-TIMP-1 antibodies
[2] = biological target: CD63-GLucC (CD63 truncated at Val206 fused to the C-terminal fragment of Gaussia luciferase) (UniProt P08962); experiment: split reporter; Gaussia luciferase protein complementation assay (PCA); GLucN and GLucC fusion plasmids co-transfected 1:1 into HEK293FT; membranes disrupted by two freeze-thaw cycles; luminescence with 10 uM coelenterazine
[3] = biological target: T1, hepatocyte nuclear factor 4α (HNF4), as GLucN-HNF4 and as HNF4-GLucC; experiment: as above
[4] = biological target: CD63-GLucC 7AA (Q36-T42 of the small extracellular loop substituted for alanine) (UniProt P08962); experiment: as above
[5] = biological target: CD63-GLucC IIQ (I43-Q45 of the small extracellular loop substituted for alanine) (UniProt P08962); experiment: as above
[6] = biological target: CD63-GLucC TPGS (T48-S51 of the small extracellular loop substituted for alanine) (UniProt P08962); experiment: as above

| binding [1] | binding [2] | binding [3] | binding [4] | binding [5] | binding [6] | Molecule |
| --- | --- | --- | --- | --- | --- | --- |
| binds | binds | no binding | binds | binds | binds | GLucN-TIMP-1 (tissue inhibitor of metalloproteinases-1 fused to the N-terminal fragment of Gaussia luciferase) (from UniProt P01033 24-207) |
| – | no binding | – | – | – | – | hepatocyte nuclear factor 4α (HNF4), as GLucN-HNF4 and as HNF4-GLucC (protein, UniProt P41235 1-474) MRLSKTLVDMDMADYSAALDPAYTTLEFENVQVLTMGNDTSPSEGTNLNAPNSLGVSALCAICGDRATGKHYGASSCDGCKGFFRRSVRKNHMYSCRFSRQCVVDKDKRNQCRYCRLKKCFRAGMKKEAVQNERDRISTRRSSYEDSSLPSINALLQAEVLSRQITSPVSGINGDIRAKKIASIADVCESMKEQLLVLVEWAKYIPAFCELPLDDQVALLRAHAGEHLLLGATKRSMVFKDVLLLGNDYIVPRHCPELAEMSRVSIRILDELVLPFQELQIDDNEYAYLKAIIFFDPDAKGLSDPGKIKRLRSQVQVSLEDYINDRQYDSRGRFGELLLLLPTLQSITWQMIEQIQFIKLFGMAKIDNLLQEMLLGGSPSDAPHAHHPLHPHLMQEHMGTNVIVANTMPTHLSNGQMCEWPRPRGQAATPETPQPSPPGGSGSEPYKLLPGAVATIVKPLSAIPQPTITKQEVI |

Reference: PMC7005868
